In US20140366224A1 (CONSEJO SUPERIOR DE INVESTIGACIONES CIENTIFICAS, published 2014):
These are yes or no findings as the source states them, for the method shown. Binding calls can cover weak binding; strength is not graded here. Sequences can lack the tags named with a protein.

Biological target: Rpb10 sub-unit from RNA Polymerase II fused to split YFP
Test: BiFC, split YFP (FIG. 8B)

B1: IYO fused to split YFP (nYFP or cYFP) (protein, not shown: large carriers)
chain: MEQSSGRVNPEQPNNVLASLVGSIVEKGISENKPPSKPLPPRPSLLSFPVARHRSHGPHLAPVGSSIAQPKDYNDDQEEEEAEERFMNADSIAAFAKPLQRKEKKDMDLGRWKDMVSGDDPASTHVPQQSRKLKIIETRPPYVASADAATTSSNTLLAARASDQREFVSDKAPFIKNLGTKERVPLNASPPLAVSNGLGTRHASSSLESDIDVENHAKLQTMSPDEIAEAQAELLDKMDPALLSILKKRGEAKLKKRKHSVQGVSITDETAKNSRTEGHFVTPKVMAIPKEKSVVQKPGIAQGFVWDAWTERVEAARDLRFSFDGNVVEEDVVSPAETGGKWSGVESAAERDFLRTEGDPGAAGYTIKEAIALARSVIPGQRCLALHLLASVLDKALNKLCQSRIGYAREEKDKSTDWEAIWAYALGPEPELVLALRMALDDNHASVVIACVKVIQCLLSCSLNENFFNILENMGPHGKDIFTASVFRSKPEIDLGFLRGCYWKYSAKPSNIVAFREEILDDGTEDTDTIQKDVFVAGQDVAAGLVRMDILPRIYHLLETEPTAALEDSIISVTIAIARHSPKCTTAILKYPKFVQTIVKRFQLNKRMDVLSSQINSVRLLKVLARYDQSTCMEFVKNGTFNAVTWHLFQFTSSLDSWVKLGKQNCKLSSTLMVEQLRFWKVCIHSGCCVSRFPELFPALCLWLSCPSFEKLREKNLISEFTSVSNEAYLVLEAFAETLPNMYSQNIPRNESGTWDWSYVSPMIDSALSWITLAPQLLKWEKGIESVSVSTTTLLWLYSGVMRTISKVLEKISAEGEEEPLPWLPEFVPKIGLAIIKHKLLSFSVADVSRFGKDSSRCSSFMEYLCFLRERSQDDELALASVNCLHGLTRTIVSIQNLIESARSKMKAPHQVSISTGDESVLANGILAESLAELTSVSCSFRDSVSSEWPIVQSIELHKRGGLAPGVGLGWGASGGGFWSTRVLLAQAGAGLLSLFLNISLSDSQNDQGSVGFMDKVNSALAMCLIAGPRDYLLVERAFEYVLRPHALEHLACCIKSNKKNISFEWECSEGDYHRMSSMLASHFRHRWLQQKGRSIAEEGVSGVRKGTVGLETIHEDGEMSNSSTQDKKSDSSTIEWAHQRMPLPPHWFLSAISAVHSGKTSTGPPESTELLEVAKAGVFFLAGLESSSGFGSLPSPVVSVPLVWKFHALSTVLLVGMDIIEDKNTRNLYNYLQELYGQFLDEARLNHRDTELLRFKSDIHENYSTFLEMVVEQYAAVSYGDVVYGRQVSVYLHQCVEHSVRLSAWTVLSNARVLELLPSLDKCLGEADGYLEPVEENEAVLEAYLKSWTCGALDRAATRGSVAYTLVVHHFSSLVFCNQAKDKVSLRNKIVKTLVRDLSRKRHREGMMLDLLRYKKGSANAMEEEVIAAETEKRMEVLKEGCEGNSTLLLELEKLKSAALCGRR
binding: binds
